According to PMC6691116:
No constants are given. Whether binding was seen depends on the method and setting. Binding seen in cells or lysates may run through a third protein. Some binding calls cover weakened binding; strength is not graded here.

By UniProt entry, the sequences of proteins in these tests, tags left out.
UniProt Q00987: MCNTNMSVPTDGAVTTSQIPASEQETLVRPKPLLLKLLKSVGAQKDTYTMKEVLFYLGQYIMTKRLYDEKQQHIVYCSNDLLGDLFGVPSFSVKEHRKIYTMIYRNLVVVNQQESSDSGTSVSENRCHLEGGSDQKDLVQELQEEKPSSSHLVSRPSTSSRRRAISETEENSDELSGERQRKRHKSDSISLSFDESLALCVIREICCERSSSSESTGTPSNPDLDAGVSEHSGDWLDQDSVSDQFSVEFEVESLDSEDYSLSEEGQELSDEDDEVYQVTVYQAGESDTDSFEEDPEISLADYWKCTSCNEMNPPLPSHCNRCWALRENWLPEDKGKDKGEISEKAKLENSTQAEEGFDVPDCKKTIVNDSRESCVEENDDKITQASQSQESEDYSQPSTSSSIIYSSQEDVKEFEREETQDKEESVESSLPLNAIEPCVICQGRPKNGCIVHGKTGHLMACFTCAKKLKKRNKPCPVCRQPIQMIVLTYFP
UniProt P06748: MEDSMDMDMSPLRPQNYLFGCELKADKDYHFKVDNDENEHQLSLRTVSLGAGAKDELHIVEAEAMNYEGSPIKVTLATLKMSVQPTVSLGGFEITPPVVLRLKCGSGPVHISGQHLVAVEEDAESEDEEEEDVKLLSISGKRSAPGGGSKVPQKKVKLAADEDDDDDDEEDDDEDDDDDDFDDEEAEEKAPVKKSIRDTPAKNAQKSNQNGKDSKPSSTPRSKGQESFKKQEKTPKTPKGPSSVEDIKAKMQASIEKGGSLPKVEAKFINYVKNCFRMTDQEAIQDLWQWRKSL

What was measured:
[1] = target: GST-HDM2 (human) (UniProt Q00987); assay: pull-down
[2] = target: HDM2 (human (endogenous in L02)) (UniProt Q00987); assay: co-IP

Row | Substance | binding [1] | binding [2]
1 | His-NPM1 (from UniProt P06748 1-294) | binds | –
2 | NPM1 (from UniProt P06748 1-294) | – | binds
